Measurements as given in PubChem BioAssay AID1487 (National Center for Advancing Translational Sciences (NCATS), 2009).
Screen size: about 200,000 compounds; about 25 (0.01%) were called active. Inconclusive means that the source gave no clear call. Such entries were picked first, then a sample of the others. Calls come from the whole dose curve; as a rule, active = well fitted inhibition curve with a large enough effect in the signal ratio, with a control signal flat (not every such curve was filed as active); inconclusive = small, poorly fitted or top-dose-only effect, or effect the other way, or a change in a side signal; inactive = flat fitted curve, though single readings scatter; the % refers to the signal ratio. Potencies of inconclusive entries are doubtful fits and often do not repeat.

Assay: qHTS Assay for Modulators of Lamin A Splicing
Conditions: HeLa LMNA splicing GFP/RFP minigene ratio, 48 h; ratio change, negative = inhibition: at 46.1 µM (top of the series) unless noted
Outline: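 S3 HeLa stable clones carrying a lamin A-EGFP splicing minigene plus DsRed2 were seeded at 600 cells/well in Opti-MEM with 2% FBS, pin-dosed and incubated 48 h at 37°C. Acumen cytometry (488 nm) gave the GFP/RFP total-intensity ratio.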
% is set by controls: 0 for no effect and ±100 for the full control effect; potency is the fitted concentration of half-maximal effect.

| Structure (SMILES) | ratio change, negative = inhibition | Potency |
| --- | --- | --- |
| CCOC(=O)n1c(=O)[nH]c2ccc(Br)cc21 | inconclusive: -6.41% [at 46 µM] | – |
| CCC(C)NC(=O)CSc1nc2ccc(N3CCOCC3)cc2c(=O)n1CCc1ccccc1 (stereo not drawn) | inactive | – |
| COc1cc(NCCCCCCCN)c2ncccc2c1 | inconclusive: -33% | – |
| OC(CNCC(c1ccco1)N1CCCCC1)c1ccccc1 (stereo not drawn) | inactive | – |
| COc1ccc2[nH]cc(CC(=O)O)c2c1 | inconclusive: -6.54% | – |
| O=C(CCSCCc1ccccn1)Nc1cc(F)ccc1F | inconclusive: 18.1% [at 46 µM] | – |
| COc1ccc(C2CC(c3ccccc3OC(C)=O)=NN2C(=O)/C=C/c2ccccc2)cc1OC (stereo not drawn) | – | inconclusive: 22.4 µM [falling, partial curve] |
| CCCC[n+]1c(C)sc2ccc(C)cc21 | inconclusive: 16.5% [at 46 µM] | – |
| COc1ccc(-n2c(C)cc(/C=C3\SC(=S)NC3=O)c2C)cc1 | inconclusive: 0.604% [at 46 µM] | – |
| COc1ccc(Cl)cc1NC(=O)c1cc(-c2ccccc2O)n[nH]1 | inconclusive: -10.1% | – |
| CSC(=S)N/N=C/c1ccccc1 | – | inconclusive: 4.47 µM [fluorescent, full curve, poor fit] |
| CCn1c(-c2csc3ccccc23)n[nH]c1=S | inactive | – |
| O=C(NN=C1CCCCCC1)c1cc(-c2ccccc2)nc2ccccc12 | inactive | – |
| O=C(CCc1ccc(CCC(=O)c2cccs2)s1)c1cccs1 | – | inconclusive: 35.5 µM [falling, single point] |
| Cc1ccc(-c2cc(C(=O)NCc3ccco3)c3ccccc3n2)s1 | inconclusive: 5.95% | – |
| COc1ccc(C(=O)c2ccccc2)c(O)c1 | inconclusive: -4.96% | – |
| CCC(CC)C(=O)Nc1nnc(S(=O)(=O)N(C)c2cc(C)cc(C)c2)s1 | inactive | – |
| COc1cccc(/C=N/NC(=S)Nc2cccc(C(=O)O)c2)c1O | inconclusive: 28.4% [at 9.22 µM] | – |
| Cc1ccc2cc3c(NC(=O)c4ccco4)nn(CC(C)C)c3nc2c1 | inconclusive: 13.9% | – |
| CC1CC(C)CN(S(=O)(=O)c2ccc(NC(=S)NC(=O)c3ccccc3)cc2)C1 (stereo not drawn) | inactive | – |
| COc1ccc(NC(=O)c2c(NCc3ccc(C)o3)sc3c2CCCCC3)c(OC)c1 | inactive | – |
| COc1ccc(-n2c(/C=C/c3cccc4ccccc34)nc3ccccc3c2=O)cc1OC | – | inconclusive: 5.01 µM [inhibitor, full curve, poor fit] |
| COc1ccc(CNC(=O)COC(=O)CCc2c[nH]c3ccccc23)cc1 | inconclusive: 20.7% [at 46 µM] | – |
| O=C1/C(=C\c2cccs2)SC(=S)N1C1CCS(=O)(=O)C1 (stereo not drawn) | – | inconclusive: 22.4 µM [inhibitor, single point] |
| COc1ccc2cc(CN(CCO)C(=O)c3ccc(Br)cc3)c(=O)[nH]c2c1 | – | inconclusive: 35.5 µM [falling, single point] |
| Cc1nn(Cc2ccc(Cl)cc2Cl)c(C)c1NC(=O)c1nn(C)cc1Cl | inactive | – |
| COc1ccc2c(c1OC)C(=O)OC2 | – | inconclusive: 0.0708 µM [activator, partial curve, poor fit] |

Arranged by SMILES length (high to low): part of the list above.

| Structure (SMILES) | ratio change, negative = inhibition | Potency |
| --- | --- | --- |
| Cc1ccc2cc3c(NC(=O)c4ccco4)nn(CC(C)C)c3nc2c1 | inconclusive: 13.9% | – |
| Cc1ccc(-c2cc(C(=O)NCc3ccco3)c3ccccc3n2)s1 | inconclusive: 5.95% | – |
| CCOC(=O)n1c(=O)[nH]c2ccc(Br)cc21 | inconclusive: -6.41% [at 46 µM] | – |

Next compounds.

| Structure (SMILES) | ratio change, negative = inhibition | Potency |
| --- | --- | --- |
| O=C(CSc1nc2ccccc2s1)N1c2ccccc2Sc2ccc(Cl)cc21 | inconclusive: 30.4% | – |
| COc1ccc(C2C(C(=O)N3CCN(C)CC3)c3ccccc3C(=O)N2C2CCCCC2)cc1 (stereo not drawn) | inactive | – |
| COc1ccc(NC(=O)c2cc(Cl)ccc2NC(=O)c2ccco2)c(OC)c1 | inactive | – |
| O=C(Nc1nc(-c2cccs2)cs1)c1ccc(S(=O)(=O)N2CCCC2)cc1 | – | inconclusive: 7.94 µM [falling, partial curve] |
| O=C(c1ccc2ccccc2n1)N1CCN(c2ccccc2O)CC1 | inconclusive: 7.35% | – |
| CCSC1=C(C#N)C(c2cccc(O)c2)CC(=O)N1 (stereo not drawn) | inactive | – |
| COc1ccc(NC(=O)c2oc3ccc(S(=O)(=O)N4CCOCC4)cc3c2C)c(OC)c1 | inconclusive: -16.3% [at 46 µM] | – |
| Cc1c(C(=O)N2CCc3ccccc3C2)oc2ccc(S(=O)(=O)N3CC(C)CC(C)C3)cc12 (stereo not drawn) | – | inconclusive: 3.16 µM [falling, full curve] |
| Clc1ccc(Cc2nnc(-c3ccccc3Br)o2)cc1 | inactive | – |
| Cn1cc(SCC(=O)N2CCOCC2)c2ccccc21 | inactive | – |
| CCOC(=O)Cn1nnnc1CN(Cc1ccc(OC)cc1)Cc1cc2cc(C)ccc2[nH]c1=O | inactive | – |
| CCN(Cc1ccncc1)S(=O)(=O)c1ccc(C(C)=O)cc1 | inconclusive: -34.1% | – |
| CSc1ccc(C2c3[nH]c4ccccc4c3CCN2C(=O)c2ccnn2C)cc1 (stereo not drawn) | inconclusive: 34.1% [at 46 µM] | – |
| CC(C)NC(=O)c1ccc2c(c1)N(CC(=O)N1CCOCC1)C(=O)C(C)(C)O2 | inactive | – |
| COc1ccc(CC2(CO)CCN(Cc3cccn3-c3ccccn3)CC2)cc1 | inconclusive: 31.6% [at 46 µM] | – |
| CN(C)S(=O)(=O)c1ccc(Cl)c(NC(=O)CN2CCc3ccccc3C2)c1 | inconclusive: -35.9% [at 46 µM] | – |
| COc1ccc(-c2ccc(SCc3ccccn3)nn2)cc1OC | inconclusive: -11.8% [at 46 µM] | – |
| Cc1ccc(-c2cc(C(=O)NCc3ccccn3)no2)cc1 | inconclusive: 13.8% | – |
| COC(=O)CN1C(=S)N(C)C(=O)/C1=C/c1cccs1 | inconclusive: 17.7% [at 46 µM] | – |
| OC(COCc1ccc2c(c1)OCO2)CN1CCC(Cc2ccccc2)CC1 (stereo not drawn) | inconclusive: 9.66% [at 46 µM] | – |
| Cc1ccc(-c2nsc(SCC(=O)NCC3CCCO3)n2)cc1 (stereo not drawn) | inconclusive: 7.97% [at 9.22 µM] | – |
| CCCCCCN1C=CC=C/C1=C/C=C(C#N)C#N | inconclusive: -10.6% | – |
| CCc1c(-c2ccccc2)nc2ccccc2c1C(=O)NC(C)c1ccccc1 (stereo not drawn) | inconclusive: -34.1% [at 46 µM] | – |
| CS(=O)(=O)c1ccc2nc(NC(=O)CN3C(=O)C4CC=CCC4C3=O)sc2c1 (stereo not drawn) | inactive | – |
| Cc1ccc(-n2[nH]c(=O)c3cccnc32)cc1 | inactive | – |
| C/C(=N\NC(=S)NCc1ccccc1)c1ccc2ccccc2c1 | – | inconclusive: 35.5 µM [fluorescent, single point] |
